Assay results: the supplement of paper PMC4604168 (melanoma cell lines)
The other results are listed elsewhere or left out. Many values rest on one well or one pass, so single values are uncertain.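 The apoptosis fraction was the count of cleaved-PARP antibody-stained nuclei relative to all DNA-stained nuclei, imaged in 1,536-well plates. Screening doses were set so most cells survived, and baseline and induced cleaved-PARP levels vary greatly across cell lines.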

What was measured:
Experiment in all cases: cleaved PARP positive nuclei fraction relative to DMSO control; melanoma cells; higher = more apoptosis
Settings in all cases: library dose: low library concentration; 72 h
[1] = test system: CBRC034 (line from a melanoma biopsy)
[2] = test system: COLO792
[3] = test system: COLO800
[4] = test system: COLO829
[5] = test system: G361
[6] = test system: IPC-298
[7] = test system: IST-MEL1
[8] = test system: LB2518-MEL
[9] = test system: LOXIMVI
[10] = test system: MEL-HO

Row | SMILES | cleaved PARP positive nuclei fraction [1] [%] | cleaved PARP positive nuclei fraction [2] [%] | cleaved PARP positive nuclei fraction [3] [%] | cleaved PARP positive nuclei fraction [4] [%] | cleaved PARP positive nuclei fraction [5] [%] | cleaved PARP positive nuclei fraction [6] [%] | cleaved PARP positive nuclei fraction [7] [%] | cleaved PARP positive nuclei fraction [8] [%] | cleaved PARP positive nuclei fraction [9] [%] | cleaved PARP positive nuclei fraction [10] [%]
1 | CN(c1ncccc1CNc1nc(Nc2ccc3c(c2)CC(=O)N3)ncc1C(F)(F)F)S(C)(=O)=O + Nc1ncn([C@H]2C[C@H](O)[C@@H](CO)O2)c(=O)n1 [decitabine] (first compound 0.08 µM, partner dose 0.1 µM) | 66.8 | 48.8 | 50.7 | 125 | 95.9 | 67.7 | 49.9 | 205 | 116 | 48.1
2 | CC1(C)CCC(c2ccc(Cl)cc2)=C(CN2CCN(c3ccc(C(=O)NS(=O)(=O)c4ccc(N[C@H](CCN5CCOCC5)CSc5ccccc5)c(S(=O)(=O)C(F)(F)F)c4)cc3)CC2)C1 + CC(=O)O[C@@]12CO[C@@H]1C[C@H](O)[C@@]1(C)C(=O)[C@H](O)C3=C(C)[C@@H](OC(=O)[C@H](O)[C@@H](NC(=O)OC(C)(C)C)c4ccccc4)C[C@@](O)([C@@H](OC(=O)c4ccccc4)[C@H]21)C3(C)C [Docetaxel] (first compound 0.4 µM, partner dose 0.0001 µM) | 183 | 2020 | 70.8 | 301 | 958 | 495 | 119 | 277 | 223 | 271
3 | CN(c1ncccc1CNc1nc(Nc2ccc3c(c2)CC(=O)N3)ncc1C(F)(F)F)S(C)(=O)=O + Nc1nc(F)nc2c1ncn2[C@@H]1O[C@H](CO)[C@@H](O)[C@@H]1O [fludarabine] (first compound 0.08 µM, partner dose 0.2 µM) | 30.4 | 136 | 52.2 | 86.1 | 182 | 45.1 | 136 | 92.7 | 34.4 | 64.1
4 | CC1(C)CCC(c2ccc(Cl)cc2)=C(CN2CCN(c3ccc(C(=O)NS(=O)(=O)c4ccc(N[C@H](CCN5CCOCC5)CSc5ccccc5)c(S(=O)(=O)C(F)(F)F)c4)cc3)CC2)C1 + O=C(O)c1ccc2c(c1)nc(Nc1cccc(Cl)c1)c1ccncc12 [CX4945] (first compound 0.4 µM, partner dose 0.4 µM) | 547 | 381 | 58.1 | 221 | 283 | 62.5 | 155 | 423 | 322 | 241
5 | C[C@]1(O)C[C@@H](c2nc(-c3ccc4ccc(-c5ccccc5)nc4c3)c3c(N)nccn32)C1 + NC1(c2ccc(-c3nc4ccn5c(=O)[nH]nc5c4cc3-c3ccccc3)cc2)CCC1 [MK2206] (first compound 0.4 µM, partner dose 0.4 µM) | 168 | 109 | 84.3 | 78.2 | 48.2 | 37.8 | 68.1 | 300 | 127 | 105
6 | COc1ccc(C2=N[C@@H](c3ccc(Cl)cc3)[C@@H](c3ccc(Cl)cc3)N2C(=O)N2CCNC(=O)C2)c(OC(C)C)c1 [Nutlin-3] + Cn1nnc2c(C(N)=O)ncn2c1=O [temozolomide] (first compound 0.1 µM, partner dose 2 µM) | 61.2 | 90.4 | 43.7 | 105 | 203 | 59.3 | 294 | 32.5 | 107 | 99.6
7 | Cn1sc(=O)n(Cc2ccccc2)c1=O + CCN(CC)CCNC(=O)c1c(C)[nH]c(/C=C2\C(=O)Nc3ccc(F)cc32)c1C [sunitinib] (first compound 0.4 µM, partner dose 0.4 µM) | 96 | 35.2 | 40.7 | 92.9 | 125 | 75.1 | 29.6 | 79 | 28.8 | 73.4
8 | NC1(c2ccc(-c3nc4ccn5c(=O)[nH]nc5c4cc3-c3ccccc3)cc2)CCC1 + CCCS(=O)(=O)Nc1ccc(F)c(C(=O)c2c[nH]c3ncc(Cl)cc23)c1F [PLX4720] (first compound 0.4 µM, partner dose 0.08 µM) | 23.9 | 140 | 160 | 37.4 | 99.4 | 29.5 | 34.6 | 188 | 60.9 | 432
9 | C[C@]1(O)C[C@@H](c2nc(-c3ccc4ccc(-c5ccccc5)nc4c3)c3c(N)nccn32)C1 + C[C@@H](Oc1cc(-c2cnn(C3CCNCC3)c2)cnc1N)c1c(Cl)ccc(F)c1Cl [Crizotinib] (first compound 0.4 µM, partner dose 0.2 µM) | 88.4 | 132 | 78.6 | 85.8 | 135 | 46.7 | 111 | 103 | 90.5 | 121
10 | CS(=O)(=O)c1ccc(C(=O)Nc2ccc(Cl)c(-c3ccccn3)c2)c(Cl)c1 [vismodegib] + C#Cc1cccc(Nc2ncnc3cc(OCCOC)c(OCCOC)cc23)c1 [erlotinib] (first compound 1 µM, partner dose 0.8 µM) | 58.1 | 91.6 | 47.3 | 93.2 | 69.7 | 30.1 | 137 | 105 | 37.6 | 222
11 | CC1(C)CCC(c2ccc(Cl)cc2)=C(CN2CCN(c3ccc(C(=O)NS(=O)(=O)c4ccc(N[C@H](CCN5CCOCC5)CSc5ccccc5)c(S(=O)(=O)C(F)(F)F)c4)cc3)CC2)C1 + C[C@]1(c2nc3c(C(N)=O)cccc3[nH]2)CCCN1 [Veliparib] (first compound 0.4 µM, partner dose 1.4 µM) | 93.6 | 317 | 156 | 263 | 92.4 | 638 | 192 | 142 | 244 | 91
12 | NC(=O)c1ccc(N(C(N)=O)c2c(F)cccc2F)nc1-c1ccc(F)cc1F + CCN(CC)CCNC(=O)c1c(C)[nH]c(/C=C2\C(=O)Nc3ccc(F)cc32)c1C [sunitinib] (first compound 0.4 µM, partner dose 0.4 µM) | 137 | 42.5 | 306 | 106 | 148 | 94.1 | 125 | 198 | 72.5 | 57.7
13 | Cn1cnc2c(F)c(Nc3ccc(Br)cc3Cl)c(C(=O)NOCCO)cc21 [selumetinib] + COCC[n+]1c2c(n(Cc3cnccn3)c1C)C(=O)c1ccccc1C2=O [YM155] (first compound 0.015 µM, partner dose 0.0004 µM) | 153 | 88.4 | 79 | 29.4 | 168 | 115 | 217 | 341 | 24.9 | 58.8
14 | COc1ccc(C2=N[C@@H](c3ccc(Cl)cc3)[C@@H](c3ccc(Cl)cc3)N2C(=O)N2CCNC(=O)C2)c(OC(C)C)c1 [Nutlin-3] + CS(=O)(=O)c1ccc(C(=O)Nc2ccc(Cl)c(-c3ccccn3)c2)c(Cl)c1 [vismodegib] (first compound 0.1 µM, partner dose 1 µM) | 63 | 52.4 | 87.6 | 105 | 128 | 46.3 | 118 | 142 | 171 | 112
15 | NC1(c2ccc(-c3nc4ccn5c(=O)[nH]nc5c4cc3-c3ccccc3)cc2)CCC1 + CNC(=O)c1cc(Oc2ccc(NC(=O)Nc3ccc(Cl)c(C(F)(F)F)c3)cc2)ccn1 [sorafenib] (first compound 0.4 µM, partner dose 0.4 µM) | 38.4 | 97.3 | 115 | 97.1 | 64.2 | 121 | 63.1 | 163 | 72.5 | 106
16 | COc1ccc(C2=N[C@@H](c3ccc(Cl)cc3)[C@@H](c3ccc(Cl)cc3)N2C(=O)N2CCNC(=O)C2)c(OC(C)C)c1 [Nutlin-3] + Nc1nc(F)nc2c1ncn2[C@@H]1O[C@H](CO)[C@@H](O)[C@@H]1O [fludarabine] (first compound 0.1 µM, partner dose 0.2 µM) | 194 | 185 | 86.4 | 137 | 110 | 30.7 | 199 | 68.2 | 68.4 | 77.7
17 | Cn1cnc2c(F)c(Nc3ccc(Br)cc3Cl)c(C(=O)NOCCO)cc21 [selumetinib] + CC(=O)O[C@@]12CO[C@@H]1C[C@H](O)[C@@]1(C)C(=O)[C@H](O)C3=C(C)[C@@H](OC(=O)[C@H](O)[C@@H](NC(=O)OC(C)(C)C)c4ccccc4)C[C@@](O)([C@@H](OC(=O)c4ccccc4)[C@H]21)C3(C)C [Docetaxel] (first compound 0.015 µM, partner dose 0.0001 µM) | 372 | 556 | 196 | 78.4 | 543 | 571 | 232 | 178 | 141 | 188
18 | C[C@]1(O)C[C@@H](c2nc(-c3ccc4ccc(-c5ccccc5)nc4c3)c3c(N)nccn32)C1 + CN1CCN(c2ccc3nc(-c4c(N)c5c(F)cccc5[nH]c4=O)[nH]c3c2)CC1 [Dovitinib] (first compound 0.4 µM, partner dose 0.1 µM) | 75 | 82.3 | 90.2 | 93.9 | 81.5 | 46.9 | 61.3 | 160 | 60.1 | 61.8
19 | NC1(c2ccc(-c3nc4ccn5c(=O)[nH]nc5c4cc3-c3ccccc3)cc2)CCC1 + CO[C@H]1C[C@@H]2CC[C@@H](C)[C@@](O)(O2)C(=O)C(=O)N2CCCC[C@H]2C(=O)O[C@H]([C@H](C)C[C@@H]2CC[C@@H](OCCO)[C@H](OC)C2)CC(=O)[C@H](C)/C=C(\C)[C@@H](O)[C@@H](OC)C(=O)[C@H](C)C[C@H](C)/C=C/C=C/C=C/1C [everolimus] (first compound 0.4 µM, partner dose 0.02 µM) | 58.6 | 491 | 76.3 | 154 | 223 | 80.7 | 40.2 | 183 | 161 | 50.1
20 | CC(=O)O[C@@]12CO[C@@H]1C[C@H](O)[C@@]1(C)C(=O)[C@H](O)C3=C(C)[C@@H](OC(=O)[C@H](O)[C@@H](NC(=O)OC(C)(C)C)c4ccccc4)C[C@@](O)([C@@H](OC(=O)c4ccccc4)[C@H]21)C3(C)C [Docetaxel] + CN1CCN(c2ccc3nc(-c4c(N)c5c(F)cccc5[nH]c4=O)[nH]c3c2)CC1 [Dovitinib] (first compound 0.0001 µM, partner dose 0.1 µM) | 116 | 473 | 120 | 352 | 802 | 478 | 204 | 278 | 31 | 254
21 | CC(=O)O[C@@]12CO[C@@H]1C[C@H](O)[C@@]1(C)C(=O)[C@H](O)C3=C(C)[C@@H](OC(=O)[C@H](O)[C@@H](NC(=O)OC(C)(C)C)c4ccccc4)C[C@@](O)([C@@H](OC(=O)c4ccccc4)[C@H]21)C3(C)C [Docetaxel] + C=C(c1ccc(C(=O)O)cc1)c1cc2c(cc1C)C(C)(C)CCC2(C)C [Bexarotene] (first compound 0.0001 µM, partner dose 2 µM) | 108 | 473 | 149 | 245 | 535 | 308 | 309 | 134 | 255 | 190

Complete entries from above. Order of values: cleaved PARP positive nuclei fraction [1] [%] | cleaved PARP positive nuclei fraction [2] [%] | cleaved PARP positive nuclei fraction [3] [%] | cleaved PARP positive nuclei fraction [4] [%] | cleaved PARP positive nuclei fraction [5] [%] | cleaved PARP positive nuclei fraction [6] [%] | cleaved PARP positive nuclei fraction [7] [%] | cleaved PARP positive nuclei fraction [8] [%] | cleaved PARP positive nuclei fraction [9] [%] | cleaved PARP positive nuclei fraction [10] [%]
CC(=O)O[C@@]12CO[C@@H]1C[C@H](O)[C@@]1(C)C(=O)[C@H](O)C3=C(C)[C@@H](OC(=O)[C@H](O)[C@@H](NC(=O)OC(C)(C)C)c4ccccc4)C[C@@](O)([C@@H](OC(=O)c4ccccc4)[C@H]21)C3(C)C [Docetaxel] + CN1CCN(c2ccc3nc(-c4c(N)c5c(F)cccc5[nH]c4=O)[nH]c3c2)CC1 [Dovitinib] (first compound 0.0001 µM, partner dose 0.1 µM) in the list: 116 | 473 | 120 | 352 | 802 | 478 | 204 | 278 | 31 | 254
CC1(C)CCC(c2ccc(Cl)cc2)=C(CN2CCN(c3ccc(C(=O)NS(=O)(=O)c4ccc(N[C@H](CCN5CCOCC5)CSc5ccccc5)c(S(=O)(=O)C(F)(F)F)c4)cc3)CC2)C1 + O=C(O)c1ccc2c(c1)nc(Nc1cccc(Cl)c1)c1ccncc12 [CX4945] (first compound 0.4 µM, partner dose 0.4 µM) in the list: 547 | 381 | 58.1 | 221 | 283 | 62.5 | 155 | 423 | 322 | 241
